Consider 23 compounds from the supplement of paper PMC5407854, “Inhibitor of ppGalNAc-T3-mediated O-glycosylation blocks cancer cell invasiveness and lowers FGF23 levels” (eLife, 2017).

The list shows a part of the results. Most values lie at the level of the controls, where differences are scatter.

This assay relates to ppGalNAc-T3 sensor. Kind of assay: T3 sensor activation Q score (MG/GFP ratio z-score vs DMSO controls) (SD units); higher = more sensor activation (inhibition of ppGalNAc-T3 glycosylation). The following applies: HEK293 sensor cells; 10 µM; 6 h. How it is done:
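Cells were treated with compound at 10 uM for 6 h, then MG/GFP ratio was read by flow cytometry (10,000 cells per well, duplicate wells). Q = (R - R_neg)/SD_neg relative to DMSO vehicle controls; the signal rises when the glycosyltransferase is inhibited.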
For the compound `O=[N+]([O-])c1ccc(N2CCN(Cc3c(F)cccc3F)CC2)cc1`, the “T3 sensor activation Q score” value is -0.395.

As to `O=[N+]([O-])c1ccccc1CN1CCN(c2ccc(Cl)cc2)CC1`, the “T3 sensor activation Q score” value is -0.135.

With `CCOc1ccc(CN2CCN(c3ccc(F)cc3)CC2)cc1`, the “T3 sensor activation Q score” value was -0.18.

In the case of `Cc1cccc(CN2CCN(Cc3ccc4c(c3)OCO4)CC2)c1`, the “T3 sensor activation Q score” value was -1.08.

Turning to `CN1CCN(c2ccc(Cl)cc2[N+](=O)[O-])CC1`, the “T3 sensor activation Q score” value was determined as 0.28.

Turning to `COc1ccccc1N1CCN(Cc2cccc(Cl)c2)CC1`, the “T3 sensor activation Q score” value was 0.625.

Regarding `CCN1CCN(Cc2cccc(Br)c2)CC1`, the “T3 sensor activation Q score” value was -0.48.

On to `CN(CCc1ccccc1)Cc1c(F)cccc1F`, for which the “T3 sensor activation Q score” value is 0.235.

Turning to `COc1ccc(CN2CCN(c3ccccc3F)CC2)cc1`, the “T3 sensor activation Q score” value is 0.225.

For the compound `CCOc1cc(CN2CCN(CC)CC2)ccc1O`, the “T3 sensor activation Q score” value came to 0.57.

`Cc1ccccc1CN1C[C@@H]2C[C@@H](C1)c1cccc(=O)n1C2`: the “T3 sensor activation Q score” value was 0.475.

Consider `Fc1cccc(CN2CCN(c3cccc(Cl)c3)CC2)c1`, for which the “T3 sensor activation Q score” value was 0.2.

As for `CCCCOc1ccc(CN2CCN(CC)CC2)cc1`, the “T3 sensor activation Q score” value was determined as 0.59.

`COc1ccc(CN2CCN(C)CC2)cc1`: the “T3 sensor activation Q score” value stood at 0.395.

Consider `COc1ccccc1CN1CCN(c2ccccc2)CC1`, for which the “T3 sensor activation Q score” value came out at 0.39.

With `COc1ccc(CN2CCN(C)CC2)c(OC)c1`, the “T3 sensor activation Q score” value was -0.34.

With `CCOc1ccccc1N1CCN(Cc2ccccc2F)CC1`, the “T3 sensor activation Q score” value is -0.03.

Take `COc1ccc(CC(N)=O)cc1OC`: the “T3 sensor activation Q score” value is -0.825.

In the case of `COc1ccccc1N1CCN(Cc2cc(F)ccc2F)CC1`, the “T3 sensor activation Q score” value is 0.265.

`CN1CCN(Cc2ccc([N+](=O)[O-])o2)CC1`: the “T3 sensor activation Q score” value was 0.45.

Take `COc1ccc(OC)c(CN2CCN(c3ccccc3C)CC2)c1`: the “T3 sensor activation Q score” value is 0.285.

Turning to `COc1ccc(Br)cc1CN1CCN(c2ccccc2C)CC1`, the “T3 sensor activation Q score” value worked out at 0.135.

Regarding `COc1ccccc1N1CCN(Cc2ccccc2F)CC1`, the “T3 sensor activation Q score” value was 0.02.
